Results are given in words; binding and its absence hold for the method and conditions named. In cells and extracts the contact can be indirect. Here binding means that the protein was enriched with, or labelled near, the bait; the list need not be complete.

The assay deals with HSPD1 (endogenous) (human (endogenous in MNNG/HOS)), P10809. Description: affinity purification with mass spectrometry; co-IP with antibodies against HSPD1 or IgG (control), LC-MS/MS; cells not stated in the main text. The note with it: remark: other sources report otherwise.

B1: ATP5A1 (endogenous), P25705 44-553 (protein)
chain: QKTGTAEMSSILEERILGADTSVDLEETGRVLSIGDGIARVHGLRNVQAEEMVEFSSGLKGMSLNLEPDNVGVVVFGNDKLIKEGDIVKRTGAIVDVPVGEELLGRVVDALGNAIDGKGPIGSKTRRRVGLKAPGIIPRISVREPMQTGIKAVDSLVPIGRGQRELIIGDRQTGKTSIAIDTIINQKRFNDGSDEKKKLYCIYVAIGQKRSTVAQLVKRLTDADAMKYTIVVSATASDAAPLQYLAPYSGCSMGEYFRDNGKHALIIYDDLSKQAVAYRQMSLLLRRPPGREAYPGDVFYLHSRLLERAAKMNDAFGGGSLTALPVIETQAGDVSAYIPTNVISITDGQIFLETELFYKGIRPAINVGLSVSRVGSAAQTRAMKQVAGTMKLELAQYREVAAFAQFGSDLDAATQQLLSRGVRLTELLKQGQYSPMAIEEQVAVIYAGVRGYLDKLEPSKITKFENAFLSHVVSQHQALLGTIRADGKISEQSDAKLKEIVTNFLAGFEA
On to B1, for which the binding result is “binds”.

These data come from publication PMC11489178.
